PubChem BioAssay AID1224828 | NIAID – 2016
This is a random part of about 17,000 deposited reagents. Of all reagents, 762 (4.5%) got an active call. 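Active calls include both raised and lowered p65 entry, mostly lowered; wells with fewer than 50 cells lack a z-score.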 Raw values are not corrected between plates. Some reagents were tested in more than one well and are listed for each.

Purpose: 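Find genes required for NF-kappaB p65 moving into the nucleus after LPS in mouse macrophages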 (primary screen)
Cells: mouse RAW264.7 G9 macrophage reporter cells (GFP-p65, Tnf promoter-mCherry)
Reagents: siRNA pool against mouse genes, 100 nM
Duration: 2 days siRNA transfection, then 40 min LPS before fixation
Challenge: LPS (Salmonella minnesota R595) at 10 ng/ml
Measurement: 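Imaged p65 nuclear translocation ratio, normalised to the plate median, converted to robust z-scores and averaged across two replicates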
Direction: p65 translocation robust z-score: higher = more nuclear NF-kappaB p65 after LPS than the plate median; nuclear/cytoplasmic p65 ratio: higher = more nuclear NF-kappaB p65
Rule for the call: 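Active if robust z is above 3.3 (negative regulators) or below -1.56, the Tlr4 control median (positive regulators); activity score 50 or more; control wells not called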
Calls: active = hit (p65 shift raised or lowered); inactive = no clear change

| gene knocked down | PubChem SID | p65 translocation robust z-score | nuclear/cytoplasmic p65 ratio, rep 1 | nuclear/cytoplasmic p65 ratio, rep 2 | low cell count flag | Call |
| --- | --- | --- | --- | --- | --- | --- |
| Mecp2 (methyl CpG binding protein 2) | SID315467889 | – | 1.18 | 1.25 | fewer than 50 cells per well; well left out of scoring | inactive |
| Or2w6 (olfactory receptor family 2 subfamily W member 6) | SID315480206 | 1.03 | 1.53 | 1.56 | enough cells to score | inactive |
| Zc3hav1 (zinc finger CCCH type, antiviral 1) | SID315475616 | – | 1.4 | 1.15 | fewer than 50 cells per well; well left out of scoring | inactive |
| Mtrf1 (mitochondrial translational release factor 1) | SID315477673 | -0.45 | 1.69 | 1.55 | enough cells to score | inactive |
| Dpep3 (dipeptidase 3) | SID315474352 | -1.55 | 1.28 | 1.17 | enough cells to score | inactive |
| Mboat7 (membrane bound O-acyltransferase domain containing 7) | SID315475482 | -0.89 | 1.47 | 1.49 | enough cells to score | inactive |
| Mkrn3 (makorin, ring finger protein, 3) | SID315470093 | -1.66 | 1.47 | 1.38 | enough cells to score | active |
| Or5m3b (olfactory receptor family 5 subfamily M member 3B) | SID315480237 | 0.82 | 1.77 | 1.71 | enough cells to score | inactive |
| Ppp6c (protein phosphatase 6, catalytic subunit) | SID315473264 | -0.99 | 1.47 | 1.28 | enough cells to score | inactive |
| Pcyox1l (prenylcysteine oxidase 1 like) | SID315479499 | 1.42 | 1.84 | 1.98 | enough cells to score | inactive |
| Or51f23 (olfactory receptor family 51 subfamily F member 23) | SID315480044 | – | 1.36 | 1.47 | fewer than 50 cells per well; well left out of scoring | inactive |
| Cldn18 (claudin 18) | SID315471572 | -1.02 | 1.41 | 1.65 | enough cells to score | inactive |
| Aplp2 (amyloid beta precursor-like protein 2) | SID315465462 | -1.49 | 1.41 | 1.38 | enough cells to score | inactive |
| D630028G08Rik (RIKEN cDNA D630028G08 gene) | SID315481298 | -0.47 | 1.48 | 1.65 | enough cells to score | inactive |
| Sprn (shadow of prion protein) | SID315477745 | 0.17 | 1.43 | 1.26 | enough cells to score | inactive |
| Git2 (GIT ArfGAP 2) | SID315470406 | 0.11 | 1.5 | 1.62 | enough cells to score | inactive |
| Gmppa (GDP-mannose pyrophosphorylase A) | SID315473717 | 0.29 | 1.15 | 1.6 | enough cells to score | inactive |
| Krt14 (keratin 14) | SID315467685 | 0.15 | 1.54 | 1.36 | enough cells to score | inactive |
| Celf4 (CUGBP, Elav-like family member 4) | SID315476667 | 0.56 | 1.42 | 1.7 | enough cells to score | inactive |
| Pafah1b2 | SID315468379 | -1.16 | 1.31 | 1.24 | enough cells to score | inactive |
| Alg3 (ALG3 alpha-1,3- mannosyltransferase) | SID315477540 | 0.83 | 1.67 | 1.81 | enough cells to score | inactive |
| Pck2 (phosphoenolpyruvate carboxykinase 2 (mitochondrial)) | SID315475003 | 1.86 | 1.8 | 1.76 | enough cells to score | inactive |
| Pck2 (phosphoenolpyruvate carboxykinase 2 (mitochondrial)) | SID315475003 | – | 1.55 | 1.62 | fewer than 50 cells per well; well left out of scoring | inactive |
| Gmpr2 (guanosine monophosphate reductase 2) | SID315476491 | -0.44 | 1.43 | 1.27 | enough cells to score | inactive |
| Phox2a (paired-like homeobox 2a) | SID315465508 | -0.11 | 1.34 | 1.39 | enough cells to score | inactive |

Active calls, of those listed so far:
| gene knocked down | PubChem SID | p65 translocation robust z-score | nuclear/cytoplasmic p65 ratio, rep 1 | nuclear/cytoplasmic p65 ratio, rep 2 | low cell count flag | Call |
| --- | --- | --- | --- | --- | --- | --- |
| Mkrn3 (makorin, ring finger protein, 3) | SID315470093 | -1.66 | 1.47 | 1.38 | enough cells to score | active |

Next reagents:
| gene knocked down | PubChem SID | p65 translocation robust z-score | nuclear/cytoplasmic p65 ratio, rep 1 | nuclear/cytoplasmic p65 ratio, rep 2 | low cell count flag | Call |
| --- | --- | --- | --- | --- | --- | --- |
| Psbpc1 (retired record) | SID315477051 | -0.64 | 1.27 | 1.16 | enough cells to score | inactive |
| E2f2 (E2F transcription factor 2) | SID315479643 | 1.01 | 1.6 | 1.65 | enough cells to score | inactive |
| E2f2 (E2F transcription factor 2) | SID315479644 | 1.17 | 1.62 | 1.54 | enough cells to score | inactive |
| Slfn5 (schlafen 5) | SID315481457 | – | 1.13 | 1.1 | fewer than 50 cells per well; well left out of scoring | inactive |
| Grb14 (growth factor receptor bound protein 14) | SID315470882 | 0.72 | 1.55 | 1.44 | enough cells to score | inactive |
| Pla1a (phospholipase A1 member A) | SID315475906 | 0.32 | 1.49 | 1.19 | enough cells to score | inactive |
| Gsdmc3 (gasdermin C3) | SID315480932 | -0.33 | 1.44 | 1.5 | enough cells to score | inactive |
| Slc25a4 | SID315465418 | -1.81 | 1.27 | 1.26 | enough cells to score | active |
| Ovgp1 (oviductal glycoprotein 1) | SID315465959 | – | 1.44 | 1.24 | fewer than 50 cells per well; well left out of scoring | inactive |
| Nsd1 (nuclear receptor-binding SET-domain protein 1) | SID315468250 | -0.26 | 1.46 | 1.34 | enough cells to score | inactive |
| Dlgap5 (DLG associated protein 5) | SID315478225 | 0.79 | 1.63 | 1.44 | enough cells to score | inactive |
| Glcci1 (glucocorticoid induced transcript 1) | SID315477236 | 1.74 | 1.79 | 1.75 | enough cells to score | inactive |
| Ppa1 (pyrophosphatase (inorganic) 1) | SID315473296 | -1.3 | 1.41 | 1.26 | enough cells to score | inactive |
| Or1e35 (olfactory receptor family 1 subfamily E member 35) | SID315480615 | 0.95 | 1.72 | 1.58 | enough cells to score | inactive |
| Slc7a12 | SID315477159 | 1.28 | 1.51 | 1.37 | enough cells to score | inactive |
